From publication PMC4736186
Results are given in words; binding and its absence hold for the method and conditions named. In cells and extracts the contact can be indirect. Some entries that bind do so weakly or less than the wild type.

By UniProt entry, the sequences of proteins in these tests, tags left out. Residues count along the entry.
UniProt P63038, residues 27-573: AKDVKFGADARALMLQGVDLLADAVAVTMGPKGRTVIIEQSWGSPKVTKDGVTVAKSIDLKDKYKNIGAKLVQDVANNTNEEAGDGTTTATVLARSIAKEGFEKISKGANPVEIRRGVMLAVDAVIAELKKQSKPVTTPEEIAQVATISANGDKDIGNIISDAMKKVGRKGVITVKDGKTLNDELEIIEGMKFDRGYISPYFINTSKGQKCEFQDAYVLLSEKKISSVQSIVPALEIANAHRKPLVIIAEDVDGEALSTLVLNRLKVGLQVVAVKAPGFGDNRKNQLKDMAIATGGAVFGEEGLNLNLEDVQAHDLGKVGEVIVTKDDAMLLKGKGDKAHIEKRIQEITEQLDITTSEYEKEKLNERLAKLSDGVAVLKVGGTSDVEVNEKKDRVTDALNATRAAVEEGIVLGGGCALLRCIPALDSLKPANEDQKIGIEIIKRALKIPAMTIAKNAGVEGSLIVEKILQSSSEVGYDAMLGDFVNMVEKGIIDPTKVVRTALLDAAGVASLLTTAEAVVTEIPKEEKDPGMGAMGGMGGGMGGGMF
UniProt Q9QUK6, residues 26-835: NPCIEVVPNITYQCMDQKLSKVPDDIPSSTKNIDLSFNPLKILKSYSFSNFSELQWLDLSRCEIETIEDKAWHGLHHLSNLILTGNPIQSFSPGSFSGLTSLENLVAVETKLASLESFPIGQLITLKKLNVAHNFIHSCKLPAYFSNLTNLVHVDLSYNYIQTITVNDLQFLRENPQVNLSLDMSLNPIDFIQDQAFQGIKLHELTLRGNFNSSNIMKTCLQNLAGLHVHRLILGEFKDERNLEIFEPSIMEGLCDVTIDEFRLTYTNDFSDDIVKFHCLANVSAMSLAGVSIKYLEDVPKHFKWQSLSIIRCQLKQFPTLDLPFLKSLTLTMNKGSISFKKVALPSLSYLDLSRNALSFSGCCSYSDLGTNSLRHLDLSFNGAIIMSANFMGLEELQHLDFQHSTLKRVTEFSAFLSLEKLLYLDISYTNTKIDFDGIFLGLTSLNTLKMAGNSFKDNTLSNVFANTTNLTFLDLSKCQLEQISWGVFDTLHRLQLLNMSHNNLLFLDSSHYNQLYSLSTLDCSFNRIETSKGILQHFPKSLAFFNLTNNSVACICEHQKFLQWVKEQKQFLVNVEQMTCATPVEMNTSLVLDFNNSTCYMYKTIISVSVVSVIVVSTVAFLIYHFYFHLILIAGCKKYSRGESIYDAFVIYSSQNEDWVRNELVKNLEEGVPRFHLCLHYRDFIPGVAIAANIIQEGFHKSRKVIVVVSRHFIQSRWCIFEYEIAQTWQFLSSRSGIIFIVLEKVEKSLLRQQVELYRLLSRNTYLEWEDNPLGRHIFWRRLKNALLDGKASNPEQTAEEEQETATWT

Target: HSP60 (mouse (endogenous in N9)) (UniProt P63038)
Assay: co-IP; whole-cell extracts (500 ug) of N9 microglial cells, untreated or treated with IL-1β for 3 h; lysis in 50 mM Tris pH 7.4, 150 mM NaCl, 5 mM EDTA, 1 % NP-40; 5 ug anti-HSP60 antibody overnight at 4 °C, protein A Sepharose 2 h at 4 °C; blot with anti-TLR4 and anti-HSP60

toll-like receptor 4 (from UniProt Q9QUK6 26-835)
binding: binds
